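Whole-cell assay for inhibitors of Mycobacterium tuberculosis growth, labelled Cornell in the record; the read-out is not stated. The concentration is filed as 10 mM, unlikely as a test dose, so the dose is not known. Higher means stronger inhibition (inferred from two other growth screens of the library). About 53,000 compounds were tested under these conditions; 1.7% (about 900) showed 50% or more at least once.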

Each number is a percent effect as filed. The controls that fix the scale are not given in the record; negative values are as filed. Compounds were drawn at random from those tested, without regard to their results.

| # | structure | Percent Effect |
|---|---|---|
| 1 | `Cc1n[nH]c(C)c1CCCN(C)c1cc(N(C)C)ncn1` | -26.46 |
| 2 | `CCc1oc(C(=O)N[C@@H]2c3ccccc3C[C@@H]2O)cc1C` | -25.44 |
| 3 | `O=S(=O)(c1cccnc1)N1CCCC1COc1ccccc1` (stereo not shown) | 19.62 |
| 4 | `N#Cc1ccccc1OCCN1CCN(C(=O)C2CCCC2)CC1` | -25.18 |
| 5 | `c1cnc2ccc(C[C@@H]3CC[C@H](CN4CCCOCC4)O3)cc2c1` | 20.15 |
| 6 | `CCc1ccc(-c2nn3c(nc2=O)-c2ccccc2NC3C(=O)O)cc1` (stereo not shown) | -37.73 |
| 7 | `COc1cccc(OCCNC(=O)CN2CCN(C)CC2C)c1` (stereo not shown) | 17.55 |
| 8 | `CN1CC=C(c2noc(CCC(=O)N3CCc4ccccc43)n2)CC1` | 14.04 |
| 9 | `COCc1ccc(C(=O)N2CCOCC2c2ccc(C)o2)cc1` (stereo not shown) | 21.73 |
| 10 | `CC(O)CN1CCC(CN(C)CC(=O)NC2CCOCC2)CC1` (stereo not shown) | -25.33 |
| 11 | `COc1cc2c(c(OC)c1OC)CCN(CCn1cncn1)CC2` | 16.91 |
| 12 | `O=C(Nc1cccc(C(F)(F)F)c1)C1CC(=O)N(Cc2ccccn2)C1` (stereo not shown) | -48.3 |
| 13 | `CCOCCC1(C(=O)N2CCCC(c3ncc[nH]3)C2)CCCC1` (stereo not shown) | 4.584 |
| 14 | `Cc1cn[nH]c1C1COCCN1Cc1c[nH]cn1` (stereo not shown) | 13.09 |
| 15 | `CC(NC(=O)NCCC(=O)OC(C)(C)C)c1nncn1C` (stereo not shown) | 6.642 |
| 16 | `O=C1NC[C@]2(CC[C@@H](C(=O)N3CCCC(O)C3)CC2)Oc2ccccc21` (stereo partly shown) | -1.738 |
| 17 | `Cc1cnc(N2CCOC(C(=O)NCc3ccccc3)C2)s1` (stereo not shown) | -5.645 |
| 18 | `[H][C@@]12CCC(=O)N(CC(C)C)[C@]1([H])CCN(C(=O)Cn1ccc(=O)cc1)C2` | -29.21 |
| 19 | `COc1ccc(-c2ncc(-c3nccn3CCN(C)C)cn2)cc1` | -16.68 |
| 20 | `CN1CC(=O)N(c2cccc(F)c2)CC12CCN(S(C)(=O)=O)C2.O=C(O)C(F)(F)F` (stereo not shown) | 16.23 |
| 21 | `O=C(O)c1cc(S(=O)(=O)Nc2cc(Cl)ccc2F)cc2c1OCCO2` | -56.27 |
| 22 | `CCNc1c(NC(=O)NC(C)C)c(=O)oc2ccccc12` | -10.78 |
| 23 | `Cc1cc(C2CCC2)nc(N2CCC3(CCCN(C)C3=O)C2)n1` (stereo not shown) | 9.343 |
| 24 | `Cc1ccc2c(c1)SCC(=O)N2CC(=O)N1CCCC1c1nccs1` (stereo not shown) | -37.89 |
| 25 | `CC(C)NC(=O)C1CCN(Cn2ccc(-c3ccc(F)cc3)n2)CC1` | -35.34 |
| 26 | `O=c1oc(-c2ccc(F)cc2)nn1CCS(=O)(=O)c1ccccc1` | 12.4 |
| 27 | `Cc1nc2c(c(=O)n1C)CN(C(=O)C1CCN(C(=O)C3CCC3)CC1)C2` | -22.3 |
| 28 | `CCSCCNc1nc(-c2ccccn2)nc2c1c(C)nn2C` | 51.67 |
| 29 | `CN(C)C(=O)CN1CCCc2c(F)cc(Br)cc21` | 22.22 |
| 30 | `Cc1nc(C(C)C)sc1C(=O)NCCSc1nccn1C` | 47.71 |
| 31 | `O=C(c1cnccn1)N1CCC(Oc2ncccc2Cl)CC1` | 13.63 |
| 32 | `CN(Cc1nnc(C2CC2)n1C)S(=O)(=O)Cc1ccccc1F` | 11 |
| 33 | `[H][C@]12CC[C@@]3(N=C(CC)N(C)C3=O)[C@@]1([H])CN(CC)C2` | -12.53 |
| 34 | `[H][C@@]12C[C@@H](c3nnc(C4CC4)o3)O[C@]1([H])CN(C(=O)c1ccsc1)C2` | 19.87 |
| 35 | `CCc1nc(CN2CCCC(N(C)Cc3cnc(C)cn3)C2)no1` (stereo not shown) | -0.6793 |
| 36 | `O=C(NCC1CCCO1)c1nc2c(s1)CCCN2C(=O)C1CC1` (stereo not shown) | 4.686 |
| 37 | `Cc1ccc(C2COCCN2C(=O)c2ccc(N(C)C)cc2)o1` (stereo not shown) | 12.48 |
| 38 | `CC(=O)NCc1ccc(C(=O)N2CCCCC2Cn2cccn2)o1` (stereo not shown) | -3.08 |
| 39 | `Cc1ccc(F)c(NS(=O)(=O)c2cc3c(c(C(=O)O)c2)OCCO3)c1` | -8.324 |
| 40 | `Cc1cccc(-c2ccc(C(=O)NCC3CCCOC3)c(=O)[nH]2)c1` (stereo not shown) | -2.956 |
| 41 | `Oc1ncccc1-c1nc(-c2cccc(CN3CCOCC3)c2)no1` | -24.98 |
| 42 | `CNC(=O)c1ccnc(CC2COc3c(cccc3OC)C2)c1` (stereo not shown) | -4.415 |
| 43 | `O=c1cccnn1CC1CN(c2ncc(F)cn2)Cc2nccn2C1` (stereo not shown) | 33.05 |
| 44 | `O=C(Cc1cccs1)NCCNc1nccc(C(F)(F)F)n1` | -1.432 |
| 45 | `[H][C@]12CCCCN1CCC[C@@]2(O)CNCCOc1ccccc1` | -10.26 |
| 46 | `CC(CNC(=O)N1CCN(CC(F)F)CC1)Cc1cccs1` (stereo not shown) | 16.69 |
| 47 | `COCC1CN(Cc2ccncc2)Cc2nnn(CC3CC3)c21.O=C(O)C(F)(F)F.O=C(O)C(F)(F)F` (stereo not shown) | -2.088 |
| 48 | `NCc1cccc(-c2cccnc2C(=O)NCCN2CCCC2)c1` | -5.271 |
| 49 | `C[C@@H](N)C(=O)N1CCC(c2[nH]ncc2-c2ccccc2)CC1` | -35.06 |

3 of the entries, repeated:

structure,Percent Effect
CC(O)CN1CCC(CN(C)CC(=O)NC2CCOCC2)CC1 (stereo not shown),-25.33
Cc1cccc(-c2ccc(C(=O)NCC3CCCOC3)c(=O)[nH]2)c1 (stereo not shown),-2.956
CCc1ccc(-c2nn3c(nc2=O)-c2ccccc2NC3C(=O)O)cc1 (stereo not shown),-37.73

Source: ChEMBL document CHEMBL3988442, “University of Dundee, Small-Polar-MMV Screening Library” (2021).